Laboratory results: PubChem BioAssay AID1053208 (Peter MacCallum Cancer Centre, 2014)

Purpose: 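Synthetic lethal interactions between gene loss and doxorubicin in osteosarcoma cells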 (primary screen)
Cell system: mouse osteosarcoma cells, early-passage culture from an engineered mouse model of fibroblastic bone tumour
Reagents: siRNA pool against mouse genes, 40 nM
Duration: about 120 h (48 h before drug, then 72 h with drug)
Treatment: doxorubicin 100 nM for 72 h, roughly 30-40% inhibitory dose
Measured: 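Luminescent ATP signal taken as viability with or without 100 nM doxorubicin for 72 h; mean of two wells set against non-targeting siRNA and turned into robust z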
Scale: viability z-score with doxorubicin and doxorubicin viability vs non-targeting: higher = more viable cells under doxorubicin; viability z-score without drug: higher = more viable cells with knock-down alone; z-score of drug to no-drug ratio: higher = less drug sensitisation by knock-down
Call rule: 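a pool counts as active when its viability z-score with doxorubicin is -2 or below and its z-score without drug lies between -2 and 2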
Shown is a random part of about 17,000 deposited reagents. Of all reagents, 788 (4.7%) are marked active. 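Calls rest on z-score classes alone; an extra cut-off of viability at most 70% of control was not applied to them.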

gene	combined z-score class	viability z-score with doxorubicin	viability z-score without drug	z-score of drug to no-drug ratio	doxorubicin viability vs non-targeting	call
Or4c3	no change with or without drug	-0.34	0	-0.22	0.91	inactive
Col17a1	no change with or without drug	0.9	-0.84	1.69	1.02	inactive
Sytl4	low cell count with doxorubicin only	-2.02	-0.17	-1.91	0.76	active
Fdx1	no change with or without drug	-0.34	-0.17	-0.11	0.91	inactive
Niban1	no change with or without drug	0	0.84	-0.45	0.94	inactive
Man2a2	no change with or without drug	-1.69	-1.18	-0.9	0.79	inactive
Wdr59	no change with or without drug	-0.45	0.34	-0.56	0.9	inactive
2300002M23Rik	no change with or without drug	-0.22	1.69	-1.12	0.92	inactive
Gbgt1	no change with or without drug	-0.22	-0.17	0	0.92	inactive
Orc1	no change with or without drug	-1.24	-0.51	-0.9	0.83	inactive
Ifna1	high cell count with and without drug	2.92	2.53	1.24	1.2	inactive
Vmn1r74	no change with or without drug	1.12	0.17	1.12	1.04	inactive
Rad17	no change with or without drug	1.8	0	2.02	1.1	inactive
Hsd17b13	no change with or without drug	0.22	-0.17	0.45	0.96	inactive
Lhx8	low cell count with and without drug	-2.02	-2.19	-0.56	0.76	inactive
Myl12a	no change with or without drug	0.45	0	0.56	0.98	inactive
P3h1	no change with or without drug	0.22	-1.01	1.12	0.96	inactive
Sestd1	no change with or without drug	1.35	1.52	0.45	1.06	inactive
Jph1	no change with or without drug	-1.12	-0.17	-1.01	0.84	inactive
Atp6v1b2	no change with or without drug	-0.67	-0.17	-0.45	0.88	inactive
Tbkbp1	low cell count with doxorubicin only	-2.36	-1.85	-1.24	0.73	active
Sdhaf4	high cell count without drug only	1.57	2.87	-0.22	1.08	inactive
C1qtnf6	no change with or without drug	0.45	0.84	0	0.98	inactive
P4ha2	no change with or without drug	-1.12	-0.17	-1.01	0.84	inactive
Leprot	no change with or without drug	0.56	0.34	0.45	0.99	inactive
Gin1	no change with or without drug	0	1.18	-0.67	0.94	inactive
Spag7	no change with or without drug	0	0.51	-0.22	0.94	inactive
Bri3	no change with or without drug	-0.22	0.17	-0.22	0.92	inactive
Slc47a1	no change with or without drug	-0.22	0.51	-0.45	0.92	inactive
D6ERTD245E	no change with or without drug	-1.57	0.84	-2.02	0.8	inactive
Trmt9b	no change with or without drug	0.9	1.85	-0.22	1.02	inactive
Arpp19	high cell count without drug only	1.8	2.02	0.56	1.1	inactive
Scgb1a1	no change with or without drug	0.9	-0.51	1.46	1.02	inactive
Vstm2a	no change with or without drug	-0.9	0.34	-1.01	0.86	inactive
Eme1	no change with or without drug	-0.34	-0.51	0.11	0.91	inactive
Fkbp2	no change with or without drug	-0.56	0.84	-1.01	0.89	inactive
Selenom	no change with or without drug	0	-0.51	0.45	0.94	inactive
Ptpn9	no change with or without drug	0.34	-0.17	0.56	0.97	inactive
Hcar2	no change with or without drug	0.45	0	0.56	0.98	inactive
Col16a1	no change with or without drug	-0.22	-0.17	0	0.92	inactive
Tmem47	no change with or without drug	0.56	0.51	0.34	0.99	inactive

Entries listed so far with an active call, once more:
gene	combined z-score class	viability z-score with doxorubicin	viability z-score without drug	z-score of drug to no-drug ratio	doxorubicin viability vs non-targeting	call
Sytl4	low cell count with doxorubicin only	-2.02	-0.17	-1.91	0.76	active
Tbkbp1	low cell count with doxorubicin only	-2.36	-1.85	-1.24	0.73	active

More reagents follow.
gene	combined z-score class	viability z-score with doxorubicin	viability z-score without drug	z-score of drug to no-drug ratio	doxorubicin viability vs non-targeting	call
Mrgpra4	no change with or without drug	-1.12	-1.18	-0.34	0.84	inactive
Cd2ap	no change with or without drug	1.91	0.84	1.46	1.11	inactive
Myot	high cell count without drug only	1.35	2.36	-0.11	1.06	inactive
Hrh4	low cell count without drug only	0.67	-2.36	2.81	1	inactive
Slc49a3	high cell count with doxorubicin only	2.36	1.35	1.57	1.15	inactive
Dync2li1	no change with or without drug	-0.11	1.85	-1.12	0.93	inactive
Lrg1	no change with or without drug	0.22	-1.18	1.24	0.96	inactive
Rita1	no change with or without drug	-1.8	-0.84	-1.24	0.78	inactive
Fbxo41	no change with or without drug	0.67	1.52	-0.22	1	inactive
Tfdp2	no change with or without drug	0.45	-0.34	0.79	0.98	inactive
Rnf141	low cell count without drug only	-1.12	-2.19	0.45	0.84	inactive
Egflam	no change with or without drug	0.67	0.51	0.45	1	inactive
Syt14	no change with or without drug	1.8	0.51	1.57	1.1	inactive
Sgpp1	no change with or without drug	-1.35	-1.52	-0.34	0.82	inactive
Cenpk	no change with or without drug	-1.91	-0.51	-1.57	0.77	inactive
Cryba1	no change with or without drug	-0.22	0.84	-0.67	0.92	inactive
Gripap1	no change with or without drug	1.91	1.52	1.01	1.11	inactive
Prpf38a	no change with or without drug	-1.12	-1.52	0	0.84	inactive
Ptbp2	high cell count without drug only	0.22	3.37	-1.69	0.96	inactive
Grik5	no change with or without drug	0	-0.84	0.67	0.94	inactive
Rpl36	low cell count with and without drug	-6.07	-4.89	-4.16	0.4	inactive
2010013B10RIK	no change with or without drug	1.35	0.51	1.12	1.06	inactive
